Measured values published in patent US20220409617A1, “Drug Formulations and Methods of Treatment for Metabolic Disorders” (The Regents of the University of California, priority 2019, published 2022).

Test system: mouse embryonic fibroblasts (MEFs)
Type: cell-based
Details: 3 h pre-treatment then palmitate 250 μM 3 h, 893 5 μM, myriocin 10 μM, fumonisin B1 30 μM, NAV-2729 12.5 μM, YM201636 800 nM, celastrol 500 nM

Nc1ccc(C(=O)Nc2cccc(-c3nc(N4CCOCC4)c4oc5ncccc5c4n3)c2)cn1 [YM201636, reference compound]
Protection from palmitate-induced mitochondrial fragmentation (aspect ratio, branch length, roundness): partial protection from palmitate-induced mitochondrial fragmentation
